Reference: the M2OR odorant receptor database
This is a selection; strong and weak results do not stand in their true shares. Calls are pooled over several reports, among them a noisy single-well screen. The list shows a part of the results.

Chains of the proteins cited; added tags and fusions are not shown. Where a name states a change or a piece, a line headed by the entry shows the natural chain unless it says otherwise. A line that says so, or that is headed by a name, gives the form on record, which may keep a tag or linker.
UniProt Q8NH37: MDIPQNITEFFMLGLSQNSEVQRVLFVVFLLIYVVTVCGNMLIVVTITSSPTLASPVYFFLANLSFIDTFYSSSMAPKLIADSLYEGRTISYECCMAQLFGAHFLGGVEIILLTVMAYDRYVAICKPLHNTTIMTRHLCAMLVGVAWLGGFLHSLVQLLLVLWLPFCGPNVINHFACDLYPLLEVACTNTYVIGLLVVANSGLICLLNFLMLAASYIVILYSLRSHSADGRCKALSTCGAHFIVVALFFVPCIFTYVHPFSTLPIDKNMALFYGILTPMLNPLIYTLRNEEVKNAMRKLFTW
UniProt Q8NH72: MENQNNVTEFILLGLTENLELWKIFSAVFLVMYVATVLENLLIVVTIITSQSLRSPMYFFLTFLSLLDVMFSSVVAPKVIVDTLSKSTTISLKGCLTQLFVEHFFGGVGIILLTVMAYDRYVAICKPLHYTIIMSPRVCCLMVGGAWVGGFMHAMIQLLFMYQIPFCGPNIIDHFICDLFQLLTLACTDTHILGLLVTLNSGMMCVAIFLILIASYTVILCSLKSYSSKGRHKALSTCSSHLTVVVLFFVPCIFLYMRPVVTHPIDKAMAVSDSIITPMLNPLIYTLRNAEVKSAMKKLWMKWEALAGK
UniProt Q8NGI6: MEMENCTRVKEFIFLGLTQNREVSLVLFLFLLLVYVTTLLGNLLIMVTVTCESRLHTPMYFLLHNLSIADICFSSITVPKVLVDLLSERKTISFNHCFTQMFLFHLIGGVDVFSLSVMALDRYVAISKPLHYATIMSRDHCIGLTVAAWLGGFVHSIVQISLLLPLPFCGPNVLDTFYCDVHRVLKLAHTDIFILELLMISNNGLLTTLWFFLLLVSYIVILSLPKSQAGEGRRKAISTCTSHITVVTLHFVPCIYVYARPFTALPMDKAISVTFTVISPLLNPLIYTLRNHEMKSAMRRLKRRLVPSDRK
OR4CC, as listed by the source: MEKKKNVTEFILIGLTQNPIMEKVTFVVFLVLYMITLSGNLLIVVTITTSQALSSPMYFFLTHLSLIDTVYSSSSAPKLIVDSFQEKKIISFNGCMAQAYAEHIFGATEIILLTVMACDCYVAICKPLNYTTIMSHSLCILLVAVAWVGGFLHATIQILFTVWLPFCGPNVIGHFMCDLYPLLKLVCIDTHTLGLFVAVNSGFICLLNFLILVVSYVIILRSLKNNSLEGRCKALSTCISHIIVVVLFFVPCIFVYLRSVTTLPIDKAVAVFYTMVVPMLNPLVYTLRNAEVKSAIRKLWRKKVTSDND
OR4C3, as listed by the source: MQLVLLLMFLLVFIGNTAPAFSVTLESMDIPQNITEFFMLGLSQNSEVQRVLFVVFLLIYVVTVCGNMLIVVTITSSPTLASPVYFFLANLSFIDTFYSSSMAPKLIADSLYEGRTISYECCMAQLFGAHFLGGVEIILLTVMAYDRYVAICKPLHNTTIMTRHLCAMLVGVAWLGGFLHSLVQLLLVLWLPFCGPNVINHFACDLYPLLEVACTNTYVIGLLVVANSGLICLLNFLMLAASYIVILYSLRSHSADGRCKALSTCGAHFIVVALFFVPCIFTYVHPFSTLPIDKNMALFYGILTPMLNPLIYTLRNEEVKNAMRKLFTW
OR4CF, as listed by the source: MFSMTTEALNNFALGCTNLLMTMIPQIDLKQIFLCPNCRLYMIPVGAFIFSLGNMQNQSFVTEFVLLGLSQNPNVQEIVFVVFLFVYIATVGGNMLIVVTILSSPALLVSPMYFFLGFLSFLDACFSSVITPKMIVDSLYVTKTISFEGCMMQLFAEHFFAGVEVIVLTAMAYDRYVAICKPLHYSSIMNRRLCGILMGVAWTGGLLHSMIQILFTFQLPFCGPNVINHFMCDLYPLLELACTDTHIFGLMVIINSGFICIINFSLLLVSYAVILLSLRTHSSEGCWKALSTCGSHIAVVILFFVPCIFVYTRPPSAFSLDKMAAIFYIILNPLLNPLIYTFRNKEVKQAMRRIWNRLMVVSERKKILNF
OR4C5, as listed by the source: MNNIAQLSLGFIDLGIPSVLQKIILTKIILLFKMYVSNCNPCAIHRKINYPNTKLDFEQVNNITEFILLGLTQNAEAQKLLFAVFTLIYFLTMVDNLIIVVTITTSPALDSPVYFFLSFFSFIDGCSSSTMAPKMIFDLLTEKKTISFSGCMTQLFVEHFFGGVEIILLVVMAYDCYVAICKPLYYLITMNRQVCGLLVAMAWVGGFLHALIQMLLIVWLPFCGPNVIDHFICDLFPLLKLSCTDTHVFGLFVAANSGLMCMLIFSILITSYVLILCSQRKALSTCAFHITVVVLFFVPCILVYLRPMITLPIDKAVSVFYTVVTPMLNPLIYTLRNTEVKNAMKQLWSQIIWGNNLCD

Legend:
Details in all cases: stereoisomer not certain
OR4B1 (Homo sapiens) = target: T1, OR4B1 (Homo sapiens) (UniProt Q8NGF8)
T1 sequence (whole entry): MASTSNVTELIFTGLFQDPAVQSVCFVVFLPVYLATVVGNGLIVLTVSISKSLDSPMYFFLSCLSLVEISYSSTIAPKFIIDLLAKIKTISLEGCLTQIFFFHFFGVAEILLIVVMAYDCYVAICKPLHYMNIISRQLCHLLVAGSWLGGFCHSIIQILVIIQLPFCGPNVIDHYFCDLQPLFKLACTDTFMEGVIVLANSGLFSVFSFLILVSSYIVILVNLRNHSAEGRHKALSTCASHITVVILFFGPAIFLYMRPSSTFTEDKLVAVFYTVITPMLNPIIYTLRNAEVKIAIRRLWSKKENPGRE
How it was run: (§1)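 Each entry records the cell line, G-protein, co-transfected protein and tags used. Methods varied with the source, often transient luciferase assays in mammalian cell lines. A receptor–molecule pair is called responsive (active) if the original authors judged its signal statistically different from baseline and non-responsive (inactive) otherwise.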

OR4C11 (Homo sapiens) = target: T2, OR4C11 (Homo sapiens) (UniProt Q6IEV9)
T2 sequence (whole entry): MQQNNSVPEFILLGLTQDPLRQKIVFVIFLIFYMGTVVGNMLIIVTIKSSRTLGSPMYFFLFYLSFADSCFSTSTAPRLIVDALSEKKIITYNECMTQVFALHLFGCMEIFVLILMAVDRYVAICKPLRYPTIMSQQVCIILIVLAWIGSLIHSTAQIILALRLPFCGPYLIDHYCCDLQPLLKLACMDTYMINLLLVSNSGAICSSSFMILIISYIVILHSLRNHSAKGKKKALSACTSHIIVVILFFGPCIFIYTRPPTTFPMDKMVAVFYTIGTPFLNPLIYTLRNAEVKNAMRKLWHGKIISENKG
How it was run: as §1

OR4C3 (Homo sapiens) = OR4C3 (Homo sapiens) (UniProt Q8NH37)
How it was run: as §1

OR4C3 = test system: OR4C3
How it was run: as §1

OR4C5 = test system: OR4C5
How it was run: as §1

OR4C6 (Homo sapiens) = OR4C6 (Homo sapiens) (UniProt Q8NH72)
How it was run: as §1

OR4CC = test system: OR4CC
How it was run: as §1

OR4CF = test system: OR4CF
How it was run: as §1

OR4CG = test system: T3, OR4CG
T3 sequence (whole entry): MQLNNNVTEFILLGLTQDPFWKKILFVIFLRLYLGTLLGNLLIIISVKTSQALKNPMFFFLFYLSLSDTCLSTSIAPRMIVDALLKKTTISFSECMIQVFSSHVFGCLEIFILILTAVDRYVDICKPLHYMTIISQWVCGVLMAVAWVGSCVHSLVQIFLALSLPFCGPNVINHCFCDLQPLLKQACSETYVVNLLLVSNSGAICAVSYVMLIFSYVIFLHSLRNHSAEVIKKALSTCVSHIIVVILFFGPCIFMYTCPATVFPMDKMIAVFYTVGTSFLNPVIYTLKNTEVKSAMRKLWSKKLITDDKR
How it was run: as §1

OR4D10 (Homo sapiens) = OR4D10 (Homo sapiens) (UniProt Q8NGI6)
How it was run: as §1

Measured: odorant receptor agonist call

CS
inactive: all assays above

CCCCOC(C)=O
inactive: all assays above

CCC(C)=O
inactive: all assays above
